# PubChem BioAssay AID652259 | Drosophila RNAi Screening Center, 2013
# Screen: 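Identify new Wingless signalling regulators in fly cells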 (primary screen)
# System: Drosophila clone 8 imaginal disc epithelial cells
# Reagent: long dsRNA against Drosophila genes
# Conditions: pathway stimulated by co-transfected Wingless expression plasmid
# Measurement: 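Dual luciferase reads per well after Wingless plasmid stimulation: reporter firefly light and Renilla control light; activity is firefly divided by Renilla, a ratio not deposited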
# Reading the numbers: firefly reporter light: higher = more Wg reporter light, before normalisation; Renilla control light: higher = more transfected or surviving cells
# Rule for the call: 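a knock-down is a candidate when at least two out of four statistical tests show it departing from its plate mean; one test alone signals a weak candidate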
# Meaning of the calls: active = candidate regulator (raises or lowers reporter); inactive = not a candidate
# The screen tested about 22,000 reagents; below is an unselected part of those that have a named target and a result. Of all reagents, 233 (1.1%) were called active. 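Light values are raw, unnormalised plate reads; the ratio scores behind the reporter calls were not deposited.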 Unmarked entries are inactive. No sequences are given here. Not given: the amount of reagent, the time to read-out, the dose of the treatment.
target,dsRNA,"firefly reporter light, replicate 1","firefly reporter light, replicate 2","Renilla control light, replicate 1","Renilla control light, replicate 2"
CG1638,DRSC15132,22938,,8601,
CG15177,DRSC12557,7154,,2704,
CG30116,DRSC05935,16627,,4026,
CG30116,DRSC06685,6010,,2449,
CG3124,DRSC04339,2278,3787,251,1111
senju,DRSC02366,2867,8118,1012,3271
MED11,DRSC10739,6983,,532,
Obp56c,DRSC06552,10156,,4016,
Obp56c,DRSC22325,3.96e5,3.93e5,1.68e5,1.56e5
Mrtf,DRSC08263,1986,,823,
Mrtf,DRSC08410,5328,,1271,
Mrtf,DRSC08411,7200,,2164,
CecB,DRSC16605,10803,,4293,
Hexo2,DRSC18671,22034,,10128,
CG13324,DRSC06361,6368,,1716,
CG5823,DRSC15881,2868,5312,1060,1879
CG33475,DRSC22943,5.89e5,5.81e5,2.53e5,2.06e5
Mmp1,DRSC04493,2407,6860,533,1937
E(var)3-9,DRSC14451,15354,,4360,
CG30096,DRSC21744,2.49e5,3.89e5,1.86e5,1.89e5
Sf3b3,DRSC08370,18499,,4721,
S6kII,DRSC20645,3248,7868,1409,2689
CG31199,DRSC15284,2330,6498,1224,1661
CG6508,DRSC02963,2503,5490,1275,3136
HP1Lcsd,DRSC03999,15353,,9568,
CG43059,DRSC08916,3792,,2192,
CG12782,DRSC04127,2694,7556,586,3386
TpnC41C,DRSC04916,2531,6896,441,2448
VhaM9.7-b,DRSC11841,14124,,4922,
RnpS1,DRSC15154,13333,,2023,
Rif1,DRSC05593,20080,,13289,
sds22,DRSC17052,12160,,3158,
CG11345,DRSC08176,3809,10289,2184,4997
CG13137,DRSC02234,2368,5738,982,3275
Ugt37E1,DRSC02248,3308,7827,1430,3504
CG5004,DRSC19929,23008,,9851,
CG5004,DRSC19930,28992,,14259,
CG5004,DRSC20123,17835,,4673,
tey,DRSC11042,21136,,6464,
tey,DRSC21709,4.14e5,4.52e5,1.66e5,1.82e5
CG31871,DRSC02567,2898,8176,1148,2987
CG31871,DRSC02571,1857,7051,851,2377
GstD11,DRSC15251,8915,,1920,
fw,DRSC20334,18149,,9170,
Papss,DRSC11246,2280,,1160,
Osi22,DRSC16442,14554,,3981,
jing,DRSC04923,3904,6865,817,2560
jing,DRSC04927,25593,,11986,
jing,DRSC05000,12680,,3336,
CG18190,DRSC06714,7154,,2471,
CG43085,DRSC09497,2097,,784,
Ald1,DRSC14109,3419,8102,923,2105
Takl2,DRSC15650,16598,,14722,
Srp14,DRSC15797,19816,,4907,
fl(2)d,DRSC07620,8189,,2162,
COX4,DRSC02091,5830,,1696,
CG8814,DRSC00707,12669,,5427,
olf186-M,DRSC07657,6680,,1952,
CG43098,DRSC08051,3165,,1362,
CG32086,DRSC10586,4720,,1861,
CG11313,DRSC14295,6721,,3075,
CG2147,DRSC18211,2823,5552,297,1676
gammaSnap1,DRSC04686,12042,,3133,
sit,DRSC15760,11180,,6400,
CG7231,DRSC03034,1882,4732,615,2704
CG42246,DRSC17520,3978,,1290,
prom,DRSC04684,3184,5114,692,1836
prom,DRSC21463,5.69e5,6.22e5,2.86e5,2.45e5
prom,DRSC22088,6.39e5,6.61e5,2.23e5,2.69e5
CG6638,DRSC10680,965,6016,864,3073
ZnT49B,DRSC07225,7815,,1968,
CG17121,DRSC15176,24455,,19815,
CG14742,DRSC14962,21158,,7764,
